Patent publication US20240052042A1 (Novartis, published 2024)
No constants are given. Whether binding was seen depends on the method and setting. Some binding calls cover weakened binding; strength is not graded here.

Sequences of proteins named here, by UniProt entry; tags and fusion partners are left off. Residues count along the entry.
UniProt P02769, residues 25-607: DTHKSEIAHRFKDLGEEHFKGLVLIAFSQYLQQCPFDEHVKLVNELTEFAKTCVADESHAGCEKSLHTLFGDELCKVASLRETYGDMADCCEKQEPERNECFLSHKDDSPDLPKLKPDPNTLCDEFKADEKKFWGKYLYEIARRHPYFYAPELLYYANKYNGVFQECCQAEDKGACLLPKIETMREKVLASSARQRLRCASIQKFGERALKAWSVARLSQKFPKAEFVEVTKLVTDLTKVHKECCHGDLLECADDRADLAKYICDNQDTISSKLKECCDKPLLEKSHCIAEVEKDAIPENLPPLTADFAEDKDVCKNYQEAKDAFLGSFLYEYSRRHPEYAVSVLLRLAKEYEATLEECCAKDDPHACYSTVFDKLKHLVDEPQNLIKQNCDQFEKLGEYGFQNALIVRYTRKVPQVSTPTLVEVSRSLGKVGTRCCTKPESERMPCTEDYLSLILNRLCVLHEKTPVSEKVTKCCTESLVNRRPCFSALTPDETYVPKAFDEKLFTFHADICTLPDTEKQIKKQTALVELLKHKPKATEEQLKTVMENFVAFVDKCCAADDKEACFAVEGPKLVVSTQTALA

Experiments:
[1] = biological target: T1, rNPR1-ANP complex (rat); assay: ELISA, IgG titrated on coated antigen with ANP (250 fold molar excess), fluorescence
T1 sequence: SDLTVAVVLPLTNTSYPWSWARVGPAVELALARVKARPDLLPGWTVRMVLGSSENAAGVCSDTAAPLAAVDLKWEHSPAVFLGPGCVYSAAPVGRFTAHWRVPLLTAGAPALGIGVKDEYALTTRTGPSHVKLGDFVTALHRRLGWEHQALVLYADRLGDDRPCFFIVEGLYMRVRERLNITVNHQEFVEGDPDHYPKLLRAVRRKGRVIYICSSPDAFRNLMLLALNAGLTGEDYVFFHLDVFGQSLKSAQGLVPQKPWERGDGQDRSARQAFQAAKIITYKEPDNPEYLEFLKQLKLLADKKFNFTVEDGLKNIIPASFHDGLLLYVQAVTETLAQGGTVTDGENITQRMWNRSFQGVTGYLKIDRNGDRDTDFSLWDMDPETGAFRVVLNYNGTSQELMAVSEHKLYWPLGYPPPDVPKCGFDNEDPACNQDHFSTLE
T1 sequence (peptide): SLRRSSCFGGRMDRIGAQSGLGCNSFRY

[2] = biological target: BSA (bovine) (UniProt P02769); assay: ELISA, IgG titrated on coated antigen, fluorescence

binding [1]: binds | binding [2]: no binding (tested: 1000 nM)
B1: YY01 (IgG format) (antibody, V domains shown)
VH: EVQLVESGGGLVQPGGSLRLSCAASGFTFSSYWISWVRQAPGKGLEWVANIKQSGSETYYVESVKGRFTISRDNAKNSLYLQMNSLRAEDTAVYYCARSLRRRSTEHAGFDVWGQGTLVTVSS
VL: DIQMTQSPSSLSASVGDRVTITCRASQGISNYLAWYQQKPGKVPKLLIYAASTLQSGVPSRFSGSGSGTDFTLTISSLQPEDVATYYCQQADKFPYTFGQGTKVEIKR
notes: also called YY01_LALA
